Patent US7977061B2, “Ex vivo method for determining potential GLP-2 receptor modulators” (NPS Pharmaceuticals Inc., priority 2005, dated 2011)
Where two headings read alike, the source gives them in different places. At least one compound was matched to its structure with a doubt left.

Target: T1, GLP-2R (Rattus norvegicus, UniProt Q9Z0W0)
T1 construct: the described assay enables native GLP-2R characterization by the direct application of GLP-2 to intestinal tissue segments ex vivo; from tissue; host or cells: colon segments of male Sprague-Dawley rats
T1 sequence (Q9Z0W0 1-550): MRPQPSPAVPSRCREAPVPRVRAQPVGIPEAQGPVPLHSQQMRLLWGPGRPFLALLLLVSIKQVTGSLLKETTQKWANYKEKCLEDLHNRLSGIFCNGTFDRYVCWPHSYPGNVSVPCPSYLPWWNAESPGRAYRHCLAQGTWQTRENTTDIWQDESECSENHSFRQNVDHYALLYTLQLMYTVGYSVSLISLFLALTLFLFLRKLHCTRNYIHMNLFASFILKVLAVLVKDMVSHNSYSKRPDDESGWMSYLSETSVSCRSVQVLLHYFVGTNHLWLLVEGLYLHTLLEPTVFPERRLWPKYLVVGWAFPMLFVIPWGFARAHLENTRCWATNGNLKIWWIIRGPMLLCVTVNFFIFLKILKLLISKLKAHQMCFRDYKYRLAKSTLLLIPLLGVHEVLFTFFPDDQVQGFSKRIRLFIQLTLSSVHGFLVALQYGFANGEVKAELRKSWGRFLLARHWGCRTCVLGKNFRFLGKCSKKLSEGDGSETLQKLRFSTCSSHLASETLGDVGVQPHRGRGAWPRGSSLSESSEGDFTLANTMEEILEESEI
Assay: Ex vivo organ bath assay of spontaneous contractility of rat colon segments
Description: Segments of colon from male Sprague Dawley rats were suspended in organ bath chambers containing Krebs' solution and maintained at 37° C. with 95% O2 and 5% CO2. Basal tone, contractility rate and peak height were used to measure the properties of spontaneous and ligand-mediated colonic contractions. Segments were initially loaded to a tension of 2 g and allowed to equilibrate for 60 minutes. During this period, segments were repeatedly washed every 10 minutes. [gly2]GLP-2 (“Teduglutide”, a GLP-2 agonist) and GLP-2 analogues were subsequently incubated with each tissue segment for 5 to 10 minutes. The tissues were allowed to re-equilibrate with repeated washes following each experiment.
Male Sprague-Dawley (SD) rats (Charles River Canada, Quebec), weighing 200-250 g, were used for these studies. The animals were housed on contact bedding and kept with free access to food (Purina Rodent Diet) and water in a facility with regulated temperature and humidity, under an alternate 12-hour light/dark cycle. Animals were acclimatized for 3˜5 days prior to harvesting of tissues.
Rats were euthanized by decapitation. The entire intestine was quickly removed and placed in a Petri dish containing a Sylgard layer and 37° C. Krebs' solution bubbled with 95% O2 and 5% CO2. The Krebs' solution (pH 7.4) contained 118.1 mM NaCl, 25 mM NaHCO3, 4.7 mM KCl, 1.2 mM KH2PO4, 1.2 mM MgSO4.7H2O, 2.5 mM CaCl2.2H2O and 11 mM glucose. The colon was isolated, cleaned of superficial fat and mesentery and sectioned into eight 1-cm long segments. […] Isometric tensions were continuously measured using calibrated force displacement transducers and data was collected and processed by the MP100WSW system with AcqKnowledge software
Segments of colon were initially loaded to a tension of 2 g and allowed to equilibrate for a 60 min period. […] Then agonist responses were measured at various concentrations as described above.
Tension was measured by changes in peak height. Data were calculated and expressed as percentage response relative to the basal level (prior to the experiment). […]

For `CC[C@H](C)[C@H](NC(=O)[C@H](Cc1ccccc1)NC(=O)[C@H](CC(=O)O)NC(=O)[C@H](CCCN=C(N)N)NC(=O)[C@H](C)NC(=O)[C@H](C)NC(=O)[C@H](CC(C)C)NC(=O)[C@H](CC(N)=O)NC(=O)[C@H](CC(=O)O)NC(=O)[C@H](CC(C)C)NC(=O)[C@@H](NC(=O)[C@@H](NC(=O)[C@H](CC(N)=O)NC(=O)[C@H](CCSC)NC(=O)[C@H](CCC(=O)O)NC(=O)[C@H](CC(=O)O)NC(=O)[C@H](CO)NC(=O)[C@H](Cc1ccccc1)NC(=O)[C@H](CO)NC(=O)CNC(=O)[C@H](CC(=O)O)NC(=O)[C@H](C)NC(=O)[C@@H](N)Cc1cnc[nH]1)[C@@H](C)O)[C@@H](C)CC)C(=O)N[C@@H](CC(N)=O)C(=O)N[C@@H](Cc1c[nH]c2ccccc12)C(=O)N[C@@H](CC(C)C)C(=O)N[C@H](C(=O)N[C@@H](CCC(N)=O)C(=O)N[C@H](C(=O)N[C@@H](CCCCN)C(=O)N[C@H](C(=O)N[C@H](C(=O)N[C@@H](CC(=O)O)C(=O)O)[C@@H](C)O)[C@@H](C)CC)[C@@H](C)O)[C@@H](C)CC` [GLP-2(1-33)], the IC50 (agonist alone, read-out: estimated IC50, inhibition of colon contractility) was 0.0135 ± 0.0054 µM, the IC50 (pre-incubated with 1 μM GLP-2(3-33), read-out: estimated IC50, inhibition of colon contractility in the presence of GLP-2(3-33)) was 0.0955 ± 0.0325 µM and the IC50 (pre-incubated with 10 μM GLP-2(3-33), read-out: estimated IC50, inhibition of colon contractility in the presence of GLP-2(3-33)) was 0.143 ± 0.0559 µM.
